These are yes or no findings as the source states them, for the method shown. Binding seen in cells or lysates may run through a third protein. Here binding means that the protein was enriched with, or labelled near, the bait; the list need not be complete.
Biological target: enolase-1 (ENO1), endogenous in PANC-1 cells (human (endogenous in PANC-1)) (UniProt P06733)
Test: affinity purification with mass spectrometry; immunoprecipitation of ENO1 from PANC-1 whole-cell lysates (NP40 lysis buffer, Protein A + G magnetic beads), IgG precipitation as negative control, silver staining and MS

Chains of the proteins cited; added tags and fusions are not shown.
UniProt P06733: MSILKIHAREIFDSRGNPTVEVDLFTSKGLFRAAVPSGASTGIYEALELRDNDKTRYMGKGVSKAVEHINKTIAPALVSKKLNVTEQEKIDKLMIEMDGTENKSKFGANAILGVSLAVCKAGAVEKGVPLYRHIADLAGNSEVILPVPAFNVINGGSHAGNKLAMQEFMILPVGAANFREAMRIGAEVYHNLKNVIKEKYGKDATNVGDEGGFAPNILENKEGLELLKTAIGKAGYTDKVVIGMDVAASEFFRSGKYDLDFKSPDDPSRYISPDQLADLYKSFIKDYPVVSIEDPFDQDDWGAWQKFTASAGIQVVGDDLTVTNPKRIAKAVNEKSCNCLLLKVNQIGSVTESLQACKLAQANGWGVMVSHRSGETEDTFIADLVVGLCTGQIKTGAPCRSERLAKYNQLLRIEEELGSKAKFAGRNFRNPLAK
UniProt P31350: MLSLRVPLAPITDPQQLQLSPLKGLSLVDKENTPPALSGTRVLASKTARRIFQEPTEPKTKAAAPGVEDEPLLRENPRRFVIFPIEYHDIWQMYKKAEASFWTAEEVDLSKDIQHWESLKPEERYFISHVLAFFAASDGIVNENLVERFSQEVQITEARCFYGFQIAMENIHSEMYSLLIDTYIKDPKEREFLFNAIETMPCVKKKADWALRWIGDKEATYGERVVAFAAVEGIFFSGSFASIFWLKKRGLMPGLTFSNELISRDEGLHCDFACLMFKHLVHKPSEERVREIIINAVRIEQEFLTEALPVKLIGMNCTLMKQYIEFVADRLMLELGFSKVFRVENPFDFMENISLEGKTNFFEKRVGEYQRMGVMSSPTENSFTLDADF

In the case of “Ribonucleotide reductase M2 subunit (RRM2), endogenous in PANC-1 cells (from UniProt P31350 1-389)”, the binding is reported as “binds”.

Source: PMC12847938
